Some of the results follow.
How the values were obtained:
Assay in all cases: log2 fold change, soluble protein after heating vs DMSO (PISA); higher = thermal stabilisation; K562 cells, 10 uM, 30 min; active = over 0.2 and 3.5 SD of the protein, either way, in both replicates (recomputed)
[1] = compound: CC[C@@H]1C(=O)N(C)c2cnc(Nc3ccc(C(=O)NC4CCN(C)CC4)cc3OC)nc2N1C1CCCC1
How it was run: (§1)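 Thermal stability values are relative to control samples and come from duplicates. They are expressed as log2 fold changes. For measurement, K562 cells (2×10^6 cells/mL) received 10 μM compound for 30 min, and aliquots were heated for 3 min over 48°C-58°C, pooled, and extracted at 4°C in PBS with 0.5% NP-40. Soluble protein, the supernatant after 21,000xg for 90 min, was quantified by TMTpro 16plex LC-MS/MS with equalised channel sums.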

Protein sequences, listed by entry. Tags and fused reporters are not part of them. Lines headed by an entry give the natural chain unless they say otherwise; changes in a name come on top.
UniProt Q9Y450, whole entry, looked up: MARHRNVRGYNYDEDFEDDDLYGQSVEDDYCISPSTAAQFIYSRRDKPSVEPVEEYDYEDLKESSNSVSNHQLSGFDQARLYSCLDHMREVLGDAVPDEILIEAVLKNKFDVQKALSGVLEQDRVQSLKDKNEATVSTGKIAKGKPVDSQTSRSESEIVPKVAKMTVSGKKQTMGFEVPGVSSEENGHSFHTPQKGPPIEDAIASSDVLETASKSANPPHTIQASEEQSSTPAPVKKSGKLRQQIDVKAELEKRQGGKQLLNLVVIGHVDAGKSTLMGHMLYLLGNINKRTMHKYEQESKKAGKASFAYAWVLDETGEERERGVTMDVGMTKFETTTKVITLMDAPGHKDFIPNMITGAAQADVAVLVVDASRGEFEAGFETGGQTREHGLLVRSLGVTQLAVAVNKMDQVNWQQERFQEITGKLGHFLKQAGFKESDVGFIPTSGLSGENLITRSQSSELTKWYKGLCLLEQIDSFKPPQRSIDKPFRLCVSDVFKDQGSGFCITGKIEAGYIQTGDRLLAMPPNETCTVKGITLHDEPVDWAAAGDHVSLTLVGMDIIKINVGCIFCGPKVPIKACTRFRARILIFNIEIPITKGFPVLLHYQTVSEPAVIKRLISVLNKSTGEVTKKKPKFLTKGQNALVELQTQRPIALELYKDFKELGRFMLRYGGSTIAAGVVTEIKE
UniProt Q16836: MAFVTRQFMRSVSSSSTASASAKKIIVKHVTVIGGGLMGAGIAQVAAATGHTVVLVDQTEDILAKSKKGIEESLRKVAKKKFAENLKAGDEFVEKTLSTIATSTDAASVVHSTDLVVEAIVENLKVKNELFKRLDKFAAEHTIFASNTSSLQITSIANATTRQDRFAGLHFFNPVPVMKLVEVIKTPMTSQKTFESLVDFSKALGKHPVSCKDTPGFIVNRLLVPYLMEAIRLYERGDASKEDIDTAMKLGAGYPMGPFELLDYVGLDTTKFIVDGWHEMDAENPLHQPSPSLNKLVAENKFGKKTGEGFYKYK
UniProt P69892: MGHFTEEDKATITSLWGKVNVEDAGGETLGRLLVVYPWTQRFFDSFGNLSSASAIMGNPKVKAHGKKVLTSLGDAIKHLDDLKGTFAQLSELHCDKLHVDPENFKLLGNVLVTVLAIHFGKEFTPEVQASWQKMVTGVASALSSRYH
UniProt Q9BXL5: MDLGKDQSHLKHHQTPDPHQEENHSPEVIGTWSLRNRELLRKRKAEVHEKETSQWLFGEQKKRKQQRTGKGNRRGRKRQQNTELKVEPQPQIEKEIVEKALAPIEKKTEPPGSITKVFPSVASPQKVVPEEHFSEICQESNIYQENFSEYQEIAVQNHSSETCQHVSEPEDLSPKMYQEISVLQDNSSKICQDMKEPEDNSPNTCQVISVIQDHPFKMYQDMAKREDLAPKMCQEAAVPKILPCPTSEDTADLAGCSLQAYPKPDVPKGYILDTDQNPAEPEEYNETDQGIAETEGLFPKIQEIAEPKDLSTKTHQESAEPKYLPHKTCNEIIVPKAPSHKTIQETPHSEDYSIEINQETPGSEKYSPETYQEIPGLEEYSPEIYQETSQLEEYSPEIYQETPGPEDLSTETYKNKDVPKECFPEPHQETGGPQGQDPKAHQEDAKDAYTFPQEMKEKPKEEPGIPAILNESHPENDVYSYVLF
UniProt Q13888: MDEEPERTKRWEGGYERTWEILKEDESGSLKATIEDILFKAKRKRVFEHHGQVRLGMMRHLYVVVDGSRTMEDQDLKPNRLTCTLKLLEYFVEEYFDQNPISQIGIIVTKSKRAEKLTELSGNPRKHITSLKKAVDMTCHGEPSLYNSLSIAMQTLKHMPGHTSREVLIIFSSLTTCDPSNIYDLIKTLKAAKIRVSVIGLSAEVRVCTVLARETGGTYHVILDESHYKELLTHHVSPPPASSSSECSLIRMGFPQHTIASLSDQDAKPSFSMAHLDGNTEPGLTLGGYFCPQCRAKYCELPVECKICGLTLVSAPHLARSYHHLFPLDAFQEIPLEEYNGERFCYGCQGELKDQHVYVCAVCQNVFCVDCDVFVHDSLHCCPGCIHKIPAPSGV
UniProt P49590: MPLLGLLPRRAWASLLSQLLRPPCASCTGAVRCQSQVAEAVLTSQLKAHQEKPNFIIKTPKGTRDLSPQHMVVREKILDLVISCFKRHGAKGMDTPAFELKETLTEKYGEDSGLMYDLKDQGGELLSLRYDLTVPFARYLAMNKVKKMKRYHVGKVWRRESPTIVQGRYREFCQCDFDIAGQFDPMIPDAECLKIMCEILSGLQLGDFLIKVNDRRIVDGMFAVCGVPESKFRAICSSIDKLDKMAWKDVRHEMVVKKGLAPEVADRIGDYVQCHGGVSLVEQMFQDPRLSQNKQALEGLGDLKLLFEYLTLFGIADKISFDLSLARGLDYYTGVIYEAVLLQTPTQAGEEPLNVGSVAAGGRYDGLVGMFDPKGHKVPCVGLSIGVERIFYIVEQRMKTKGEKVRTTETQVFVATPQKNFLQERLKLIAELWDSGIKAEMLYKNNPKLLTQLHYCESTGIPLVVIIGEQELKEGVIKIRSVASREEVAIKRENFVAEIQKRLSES
UniProt Q9BQS7: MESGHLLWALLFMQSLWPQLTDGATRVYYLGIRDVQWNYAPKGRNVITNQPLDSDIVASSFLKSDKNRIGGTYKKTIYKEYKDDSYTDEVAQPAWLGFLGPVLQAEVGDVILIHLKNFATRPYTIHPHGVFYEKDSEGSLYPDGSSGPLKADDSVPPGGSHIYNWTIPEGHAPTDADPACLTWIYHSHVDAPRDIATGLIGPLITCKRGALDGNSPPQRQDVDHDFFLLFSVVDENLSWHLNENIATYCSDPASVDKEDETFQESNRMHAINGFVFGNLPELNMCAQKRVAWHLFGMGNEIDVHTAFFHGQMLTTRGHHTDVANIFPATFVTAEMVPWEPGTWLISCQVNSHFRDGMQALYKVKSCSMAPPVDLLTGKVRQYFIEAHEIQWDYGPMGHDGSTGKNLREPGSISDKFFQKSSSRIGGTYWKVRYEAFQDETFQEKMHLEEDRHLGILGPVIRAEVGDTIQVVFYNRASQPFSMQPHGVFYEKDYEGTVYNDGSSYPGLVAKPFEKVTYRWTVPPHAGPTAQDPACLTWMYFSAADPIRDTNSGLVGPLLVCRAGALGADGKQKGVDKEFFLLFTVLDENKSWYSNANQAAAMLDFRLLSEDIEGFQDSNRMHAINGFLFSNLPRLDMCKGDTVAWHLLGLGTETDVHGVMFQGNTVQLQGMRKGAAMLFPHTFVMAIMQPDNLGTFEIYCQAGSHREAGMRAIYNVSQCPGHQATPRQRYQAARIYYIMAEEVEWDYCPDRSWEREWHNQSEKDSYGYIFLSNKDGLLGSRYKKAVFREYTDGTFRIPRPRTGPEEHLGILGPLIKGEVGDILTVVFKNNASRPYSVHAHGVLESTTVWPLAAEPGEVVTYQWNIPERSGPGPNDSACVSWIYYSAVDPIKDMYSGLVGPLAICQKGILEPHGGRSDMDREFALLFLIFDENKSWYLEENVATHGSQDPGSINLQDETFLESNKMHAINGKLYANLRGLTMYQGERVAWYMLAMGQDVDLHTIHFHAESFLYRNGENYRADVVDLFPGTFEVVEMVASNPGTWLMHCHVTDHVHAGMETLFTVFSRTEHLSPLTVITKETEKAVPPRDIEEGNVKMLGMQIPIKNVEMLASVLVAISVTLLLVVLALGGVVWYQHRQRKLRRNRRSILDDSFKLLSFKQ
UniProt P48637: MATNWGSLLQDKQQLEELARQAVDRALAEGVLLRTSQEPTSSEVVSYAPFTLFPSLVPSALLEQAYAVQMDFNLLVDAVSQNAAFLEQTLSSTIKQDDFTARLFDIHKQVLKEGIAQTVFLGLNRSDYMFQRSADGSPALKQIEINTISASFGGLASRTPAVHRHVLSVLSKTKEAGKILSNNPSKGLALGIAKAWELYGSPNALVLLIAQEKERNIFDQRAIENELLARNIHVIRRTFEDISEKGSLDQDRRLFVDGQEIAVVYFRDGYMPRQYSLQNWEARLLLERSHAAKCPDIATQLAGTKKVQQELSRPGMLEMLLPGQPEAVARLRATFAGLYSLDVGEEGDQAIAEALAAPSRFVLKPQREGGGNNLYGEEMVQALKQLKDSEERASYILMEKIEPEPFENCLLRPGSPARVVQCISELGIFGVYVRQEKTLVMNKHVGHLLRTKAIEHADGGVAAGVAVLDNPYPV
UniProt O15379: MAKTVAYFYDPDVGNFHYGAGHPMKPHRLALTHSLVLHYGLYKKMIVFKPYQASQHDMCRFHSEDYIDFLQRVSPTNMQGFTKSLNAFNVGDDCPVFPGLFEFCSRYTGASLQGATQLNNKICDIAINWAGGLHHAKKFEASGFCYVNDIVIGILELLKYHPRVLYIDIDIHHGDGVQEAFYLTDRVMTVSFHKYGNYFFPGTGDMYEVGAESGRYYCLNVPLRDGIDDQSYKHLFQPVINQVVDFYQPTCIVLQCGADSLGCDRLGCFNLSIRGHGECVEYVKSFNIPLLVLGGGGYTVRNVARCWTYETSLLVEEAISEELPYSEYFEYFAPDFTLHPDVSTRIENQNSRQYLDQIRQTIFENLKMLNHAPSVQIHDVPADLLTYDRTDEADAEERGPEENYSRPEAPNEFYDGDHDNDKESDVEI
UniProt Q8N4P3, whole entry, looked up: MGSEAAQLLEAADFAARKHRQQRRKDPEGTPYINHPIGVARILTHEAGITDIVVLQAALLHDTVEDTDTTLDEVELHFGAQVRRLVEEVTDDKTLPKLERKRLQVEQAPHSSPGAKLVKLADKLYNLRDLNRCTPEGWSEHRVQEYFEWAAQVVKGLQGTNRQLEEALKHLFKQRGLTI
UniProt P69891: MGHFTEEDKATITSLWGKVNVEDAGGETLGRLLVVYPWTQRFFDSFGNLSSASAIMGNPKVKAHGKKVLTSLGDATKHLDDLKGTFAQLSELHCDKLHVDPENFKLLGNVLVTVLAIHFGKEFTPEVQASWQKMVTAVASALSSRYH
UniProt P04921: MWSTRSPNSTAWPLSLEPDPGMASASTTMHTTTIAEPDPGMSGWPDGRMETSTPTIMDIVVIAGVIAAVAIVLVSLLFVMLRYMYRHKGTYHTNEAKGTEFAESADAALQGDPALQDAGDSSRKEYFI
UniProt Q9Y5Z4: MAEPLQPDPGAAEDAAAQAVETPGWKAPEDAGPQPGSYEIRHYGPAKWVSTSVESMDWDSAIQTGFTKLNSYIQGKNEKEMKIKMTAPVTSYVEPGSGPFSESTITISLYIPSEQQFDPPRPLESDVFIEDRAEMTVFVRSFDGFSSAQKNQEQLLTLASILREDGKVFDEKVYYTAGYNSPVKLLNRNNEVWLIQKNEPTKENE
UniProt P02042: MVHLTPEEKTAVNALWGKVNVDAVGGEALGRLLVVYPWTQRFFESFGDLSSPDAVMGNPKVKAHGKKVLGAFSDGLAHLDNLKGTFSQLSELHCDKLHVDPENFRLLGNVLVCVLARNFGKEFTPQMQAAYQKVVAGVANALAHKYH
UniProt Q9BX10: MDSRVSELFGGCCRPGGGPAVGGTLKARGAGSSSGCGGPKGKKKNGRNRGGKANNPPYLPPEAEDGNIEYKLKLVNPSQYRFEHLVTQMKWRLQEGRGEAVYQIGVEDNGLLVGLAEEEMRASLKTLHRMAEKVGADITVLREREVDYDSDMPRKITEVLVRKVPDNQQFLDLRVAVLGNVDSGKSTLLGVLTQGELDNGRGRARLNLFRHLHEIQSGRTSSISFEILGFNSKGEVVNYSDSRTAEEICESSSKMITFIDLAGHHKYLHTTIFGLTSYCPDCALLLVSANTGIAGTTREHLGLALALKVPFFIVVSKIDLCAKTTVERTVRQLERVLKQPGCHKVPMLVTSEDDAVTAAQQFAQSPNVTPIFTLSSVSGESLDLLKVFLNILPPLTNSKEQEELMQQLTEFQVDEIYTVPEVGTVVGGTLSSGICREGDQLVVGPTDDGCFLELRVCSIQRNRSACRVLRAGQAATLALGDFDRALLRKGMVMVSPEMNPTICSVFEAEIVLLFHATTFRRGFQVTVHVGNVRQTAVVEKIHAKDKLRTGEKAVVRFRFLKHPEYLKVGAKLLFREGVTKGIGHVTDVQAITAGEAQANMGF

[2] = compound: CC[C@@H]1C(=O)N(C)c2cnc(Nc3ccc(C(=O)N[C@H]4CC[C@H](N5CCN(CC6CC6)CC5)CC4)cc3OC)nc2N1C(C)C [volasertib]
How it was run: as §1

[3] = compound: CC[C@H](C)N1C=C(C2=C(C=C(C=C21)C3=CN=C(C=C3)N4CCNCC4)C(=O)NCC5=C(C=C(NC5=O)C)C)C
How it was run: as §1

[4] = compound: CC[C@H](C)[C@@H](C(=O)N[C@@H]([C@@H](C)O)C(=O)N[C@@H](CC(C)C)C(=O)[C@]1(CO1)C)NC(=O)[C@H]([C@@H](C)CC)N(C)C(=O)C [epoxomicin]
How it was run: as §1

[5] = compound: CCn1c(C(=O)N(C2CC2)C2CC2)cc2c3c(ncn3C)c(Nc3cc(C)n(C)n3)nc21
How it was run: as §1

[6] = compound: CCn1cc(-c2ccnc3[nH]c(-c4cccc(CN(C)C)c4)cc23)c(-c2ccc(NC(=O)N(C)C)cc2)n1
How it was run: as §1

[7] = compound: CN(C)CC(=O)Nc1ccc2[nH]c(=O)c3ccccc3c2c1
How it was run: as §1

[8] = compound: CN(CCOC1=CC=C(C=C1)C[C@H]2C(=O)NC(=O)S2)C3=CC=CC=N3 (racemic) [rosiglitazone]
How it was run: as §1

[9] = compound: CN1C2=C(C3=C1C(=O)N(N=C3)CC4=CC(=CC=C4)N)SC(=C2)S(=O)C
How it was run: as §1

[10] = compound: CN1CCC(CNc2ccc3ncc(-c4cccc(OC(F)(F)F)c4)n3n2)CC1
How it was run: as §1

[11] = compound: CN1CCN(CCOc2cc(OC3CCOCC3)c3c(Nc4c(Cl)ccc5c4OCO5)ncnc3c2)CC1 [saracatinib]
How it was run: as §1

[12] = compound: CN1CCN(c2nc(C3=C(c4c[nH]c5ccccc45)C(=O)NC3=O)c3ccccc3n2)CC1 [sotrastaurin]
How it was run: as §1

[13] = compound: CN1CC[C@H](c2c(O)cc(O)c3c(=O)cc(-c4ccccc4Cl)oc23)[C@H](O)C1 [alvocidib]
How it was run: as §1

[14] = compound: CN1CCc2c(c3ccccc3n2Cc2ccc(C(=O)NO)cc2)C1 [Tubastatin A]
How it was run: as §1

[15] = compound: CNC(=O)C1=CC=CC=C1NC2=NC(=NC=C2Cl)NC3=C(C=C(C=C3)N4CCOCC4)OC
How it was run: as §1

[16] = compound: CNC(=O)c1ccc(Nc2ncc(C(F)(F)F)c(NCc3nccnc3N(C)S(C)(=O)=O)n2)cc1 [defactinib]
How it was run: as §1

[17] = compound: CNCc1ccc(-c2[nH]c3cc(F)cc4c3c2CCNC4=O)cc1 [rucaparib]
How it was run: as §1

[18] = compound: CNc1nc(-c2ccc3c(N)n[nH]c3c2)cc(N2C[C@@H](C(=O)NC3CCCCC3)CC[C@H]2C)n1
How it was run: as §1

[19] = compound: COC(=O)N[C@@H](C)CNc1nccc(-c2cn(C(C)C)nc2-c2cc(Cl)cc(NS(C)(=O)=O)c2F)n1 [encorafenib]
How it was run: as §1

[20] = compound: COC(=O)[C@H](CCSC)NC(=O)C1=C(C=C(C=C1)NC[C@H](CS)N)C2=CC=CC=C2
How it was run: as §1

Measured: log2 fold change

HBS1L isoform 2 (UniProt Q9Y450)
inactive: [1] -0.08 | [2] -0.199 | [3] 0.019 | [4] 0.008 | [5] -0.046 | [6] -0.189 | [7] -0.082 | [8] 0.01 | [9] -0.198 | [10] -0.218 | [11] 0.058 | [12] -0.006 | [13] -0.093 | [14] 0.024 | [15] -0.026 | [16] 0 | [17] -0.047 | [18] 0.085 | [19] 0.03 | [20] 0.089

HADH isoform 2 (UniProt Q16836)
inactive: [1] 0.001 | [2] 0.068 | [3] 0.021 | [4] 0.07 | [5] 0.023 | [6] -0.06 | [7] -0.021 | [8] -0.009 | [9] -0.111 | [10] -0.02 | [11] -0.02 | [12] 0.031 | [13] 0.036 | [14] -0.012 | [15] -0.014 | [16] -0.027 | [17] -0.065 | [18] 0.183 | [19] -0.014 | [20] 0.02

HBG2 (UniProt P69892)
inactive: [1] 0 | [2] -0.009 | [3] -0.002 | [4] 0.203 | [5] 0.076 | [6] -0.02 | [7] 0.018 | [8] -0.099 | [9] -0.06 | [10] 0.088 | [11] 0.023 | [12] -0.082 | [13] -0.031 | [14] 0.007 | [15] -0.025 | [16] -0.022 | [17] 0 | [18] -0.01 | [19] 0.011 | [20] -0.003

HEMGN (UniProt Q9BXL5)
inactive: [1] 0.012 | [2] 0.078 | [3] -0.023 | [4] 0.01 | [5] 0.046 | [6] 0.021 | [7] -0.023 | [8] -0.006 | [9] -0.012 | [10] 0.019 | [11] 0 | [12] 0.071 | [13] 0.043 | [14] -0.005 | [15] -0.009 | [16] 0.03 | [17] -0.019 | [18] -0.007 | [19] -0.018 | [20] 0.026

GTF2H2 (UniProt Q13888)
inactive: [1] 0.001 | [2] -0.079 | [3] 0.09 | [4] 0.084 | [5] -0.031 | [6] -0.063 | [7] 0.021 | [8] -0.01 | [9] 0.065 | [10] -0.007 | [11] -0.024 | [12] -0.035 | [13] -0.026 | [14] 0.068 | [15] -0.005 | [16] -0.093 | [17] 0.032 | [18] -0.013 | [19] 0.002 | [20] -0.057

HARS2 (UniProt P49590)
inactive: [1] 0.058 | [2] 0.093 | [3] -0.058 | [4] -0.018 | [5] -0.017 | [6] 0.053 | [7] 0 | [8] 0.004 | [9] -0.011 | [10] 0.077 | [11] 0.056 | [12] 0.023 | [13] 0.002 | [14] -0.004 | [15] 0.017 | [16] 0 | [17] -0.012 | [18] -0.027 | [19] -0.042 | [20] 0.013

HEPH isoform 3 (UniProt Q9BQS7)
inactive: [1] -0.08 | [2] -0.176 | [3] -0.009 | [4] 0.021 | [5] 0.012 | [6] -0.023 | [7] -0.035 | [8] 0.001 | [9] 0.056 | [10] 0.024 | [11] -0.07 | [12] -0.048 | [13] 0.048 | [14] 0.065 | [15] -0.042 | [16] -0.008 | [17] 0.022 | [18] -0.038 | [19] 0.08 | [20] -0.026

GSS (UniProt P48637)
inactive: [1] 0.017 | [2] 0.044 | [3] -0.049 | [4] -0.026 | [5] -0.007 | [6] -0.002 | [7] -0.009 | [8] 0.002 | [9] -0.046 | [10] -0.036 | [11] 0 | [12] 0.035 | [13] -0.006 | [14] -0.037 | [15] -0.047 | [16] -0.019 | [17] -0.036 | [18] -0.059 | [19] -0.023 | [20] 0.02

HDAC3 isoform 2 (UniProt O15379)
inactive: [1] -0.019 | [2] -0.057 | [3] 0.071 | [4] 0.038 | [5] 0.004 | [6] -0.013 | [7] 0.095 | [8] -0.112 | [9] -0.077 | [10] 0.137 | [11] -0.022 | [12] -0.039 | [13] 0.072 | [14] 0.04 | [15] -0.039 | [16] -0.073 | [17] 0.074 | [18] 0.003 | [19] -0.067 | [20] -0.07

HDDC3 (UniProt Q8N4P3)
inactive: [1] 0.032 | [2] 0.055 | [3] -0.027 | [4] 0.012 | [5] 0.017 | [6] -0.048 | [7] -0.057 | [8] -0.032 | [9] -0.025 | [10] -0.084 | [11] 0.008 | [12] 0.107 | [13] -0.014 | [14] -0.057 | [15] -0.025 | [16] 0.012 | [17] -0.021 | [18] -0.044 | [19] -0.039 | [20] 0.035

HAGH (UniProt Q16775)
inactive: [1] 0.058 | [2] 0.08 | [3] -0.019 | [4] -0.019 | [5] -0.031 | [6] -0.008 | [7] -0.071 | [8] 0.059 | [9] -0.063 | [10] -0.095 | [11] -0.004 | [12] 0.032 | [13] -0.006 | [14] -0.039 | [15] -0.018 | [16] -0.004 | [17] -0.002 | [18] -0.056 | [19] -0.051 | [20] 0.041

HBG1 (UniProt P69891)
inactive: [1] -0.012 | [2] -0.057 | [3] -0.013 | [4] 0.188 | [5] 0.066 | [6] -0.036 | [7] -0.013 | [8] -0.003 | [9] -0.055 | [10] 0.017 | [11] -0.001 | [12] 0.021 | [13] -0.018 | [14] -0.007 | [15] -0.036 | [16] -0.023 | [17] -0.031 | [18] -0.006 | [19] -0.024 | [20] -0.046

Taken from the entries so far (2 entries):
HDAC3 isoform 2 (UniProt O15379)
inactive: [1] -0.019 | [2] -0.057 | [3] 0.071 | [4] 0.038 | [5] 0.004 | [6] -0.013 | [7] 0.095 | [8] -0.112 | [9] -0.077 | [10] 0.137 | [11] -0.022 | [12] -0.039 | [13] 0.072 | [14] 0.04 | [15] -0.039 | [16] -0.073 | [17] 0.074 | [18] 0.003 | [19] -0.067 | [20] -0.07

HDDC3 (UniProt Q8N4P3)
inactive: [1] 0.032 | [2] 0.055 | [3] -0.027 | [4] 0.012 | [5] 0.017 | [6] -0.048 | [7] -0.057 | [8] -0.032 | [9] -0.025 | [10] -0.084 | [11] 0.008 | [12] 0.107 | [13] -0.014 | [14] -0.057 | [15] -0.025 | [16] 0.012 | [17] -0.021 | [18] -0.044 | [19] -0.039 | [20] 0.035

Further results.

GYPC (UniProt P04921)
inactive: [1] 0.133 | [2] 0.048 | [3] -0.045 | [4] -0.037 | [5] -0.051 | [6] -0.048 | [7] -0.054 | [8] -0.078 | [9] -0.121 | [10] 0.113 | [11] -0.178 | [12] 0.046 | [13] -0.063 | [14] 0.255 | [15] -0.091 | [16] -0.049 | [17] -0.005 | [18] 0.109 | [19] -0.118 | [20] 0.039

HEBP2 (UniProt Q9Y5Z4)
inactive: [1] 0.011 | [2] -0.011 | [3] 0.024 | [4] 0.026 | [5] 0.017 | [6] -0.052 | [7] -0.038 | [8] 0.033 | [9] -0.035 | [10] 0 | [11] 0.045 | [12] 0.019 | [13] -0.038 | [14] -0.043 | [15] -0.019 | [16] 0.006 | [17] -0.118 | [18] -0.017 | [19] -0.013 | [20] 0.045

HBD (UniProt P02042)
inactive: [1] 0.077 | [2] 0.038 | [3] -0.018 | [4] 0.275 | [5] 0.017 | [6] -0.118 | [7] -0.006 | [8] 0.049 | [9] -0.013 | [10] 0.232 | [11] 0.06 | [12] 0.068 | [13] -0.054 | [14] -0.008 | [15] -0.017 | [16] 0.007 | [17] 0.016 | [18] 0.002 | [19] -0.07 | [20] 0.005

GTPBP2 (UniProt Q9BX10)
inactive: [1] 0.056 | [2] 0.099 | [3] 0.12 | [4] -0.163 | [5] -0.068 | [6] -0.01 | [7] -0.085 | [8] -0.02 | [9] 0.061 | [10] -0.058 | [11] -0.047 | [12] -0.053 | [13] -0.003 | [14] -0.006 | [15] -0.011 | [16] 0.061 | [17] 0.053 | [18] 0.046 | [19] 0.062 | [20] -0.019

Reference: the supplement of paper PMC10849652
